Assay results taken from PubChem BioAssay AID493014 (National Center for Advancing Translational Sciences (NCATS), 2011).
About 170 (0.05%) of roughly 340,000 compounds were called active. This list was built around the results that the source calls inconclusive (neither active nor inactive); the mix of calls is not that of the screen. Calls come from the whole dose curve; as a rule, active = well fitted inhibition curve with a large enough effect in the signal ratio, with a control signal flat (not every such curve was filed as active); inconclusive = small, poorly fitted or top-dose-only effect, or effect the other way, or a change in a side signal; inactive = flat fitted curve, though single readings scatter; the % refers to the signal ratio. Potencies of inconclusive entries are doubtful fits and often do not repeat.

Assay: qHTS Assay to Find Inhibitors of Chronic Active B-Cell Receptor Signaling;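 for activity change, negative = inhibition: plate controls were basal doxycycline-induced cells for no effect and cells given 10 µM MG132 for full effect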
Settings: ABC-DLBCL IkBa-CBG/CBR reporter, luminescence ratio (green luciferase fused to IkBa over red control in TMD8 lymphoma cells), 4 h; activity change, negative = inhibition: at 46.1 µM (top of the series)
In short: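 Doxycycline induced both beetle luciferases in TMD8 lymphoma cells; IKK-driven degradation limits the IkappaBalpha-fused green signal, while red luminescence normalises for cell number and nonspecific effects. Compounds tested up to 46 uM, 4 hrs.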
Potency is the fitted concentration of half-maximal effect.

Structure (SMILES) | activity change, negative = inhibition | Potency
COc1ccc(CCN2C(=O)CC(N3CCN(S(=O)(=O)c4ccccc4)CC3)C2=O)cc1OC (stereo not given) | inconclusive: 2.04% | –
COC(=O)N/N=C/c1cc(Cl)c(OCc2ccccc2F)c(OC)c1 | inactive: 8.57% | –
COC1CCCN(Cc2cn(C)nc2-c2ccc(Oc3ccccc3)cc2)C1 (stereo not given) | inconclusive: 6.69% | –
C/C=C(\CS(=O)(=O)c1ccccc1)S(=O)(=O)c1ccccc1 | inconclusive: 0.189% | –
Cc1ccc(Cn2ccc(NC(=O)c3cc(C4CC4)on3)n2)cc1 | inactive: -2.53% | –
CC(=O)/C(=N\Nc1ccccc1)Sc1cccc2cccnc12 | inactive: 2.93% | –
O=C(c1ccc2c(=O)n3c(nc2c1)CCCCC3)N1CCN(c2cccc(Cl)c2)CC1 | – | inconclusive: 3.16 µM [rising, partial curve, poor fit]
CCc1ccc(/C=N/NC(=O)c2ccccn2)cc1 | – | inconclusive: 3.98 µM [rising, full curve, poor fit]
Cc1ccccc1Nc1nnc(SCC(=O)c2cc3ccccc3o2)s1 | inconclusive: -1.21% | –
COc1ccc(CCNC(=O)c2ccc3c(c2)N(Cc2ccc(F)cc2)C(=O)CS3)cc1OC | inconclusive: -1.89% | –
O=c1[nH]c2cc3c(cc2cc1CN(Cc1cccnc1)C(=S)NCc1ccco1)OCO3 | inconclusive: -2.35% | –
C=CCN(CC=C)C(=O)CN1C(=O)NC(Cc2c[nH]c3ccccc23)C1=O (stereo not given) | inconclusive: 2.47% | –
CCn1cc(/C=C(\NC(=O)c2ccc(OC)c(OC)c2)C(=O)N2CCN(C)CC2)c2ccccc21 | inactive: -0.834% | –
CC(O)c1nc2ccccc2n1CCCCOc1ccccc1 (stereo not given) | inconclusive: 24% | –
Cc1ccc(C(=O)Nc2ccc3c(c2)OCCO3)cc1 | – | inconclusive: 20 µM [falling, single point]
Cc1sc2ncnc(Nc3ccc(N4CCOCC4)cc3)c2c1-c1ccccc1 | inconclusive: -1.65% | –
COc1ccccc1CC(=O)NNC(=O)c1cccs1 | – | inconclusive: 7.08 µM [falling, full curve, poor fit]
COc1cc2c(cc1NC(=O)c1cccc(Br)c1)CCCC2 | inconclusive: 7.29% | –
CCN(CC)C(=O)c1cccc(NC(=O)c2ccccc2OCc2c(C)noc2C)c1 | inactive: 5.62% | –
S=c1[nH]nc(-c2ccccc2)n1/N=C/c1cccc(Br)c1 | inconclusive: 12.2% | –

A draw from above in order of count of non-hydrogen atoms, largest number first:
Structure (SMILES) | activity change, negative = inhibition | Potency
COc1ccc(CCN2C(=O)CC(N3CCN(S(=O)(=O)c4ccccc4)CC3)C2=O)cc1OC (stereo not given) | inconclusive: 2.04% | –
CCN(CC)C(=O)c1cccc(NC(=O)c2ccccc2OCc2c(C)noc2C)c1 | inactive: 5.62% | –
Cc1ccccc1Nc1nnc(SCC(=O)c2cc3ccccc3o2)s1 | inconclusive: -1.21% | –

Next part.

Structure (SMILES) | activity change, negative = inhibition | Potency
CCOc1ccc2nc(N(Cc3ccccc3)C(=O)CCNC(C)=O)sc2c1 | – | inconclusive: 11.2 µM [falling, partial curve]
COc1cccc2cc(-c3ccnc(N)n3)oc12 | inconclusive: -0.795% | –
CC(C)(C)C(=O)Nc1nc2cc3c(cc2s1)OCO3 | – | inconclusive: 17.8 µM [falling, single point]
COc1cccc(CSc2nc3ccccc3cc2C=O)c1 | – | inconclusive: 8.91 µM [falling, partial curve]
CCOCCCNCc1ccc(OC)cc1 | inconclusive: 1.81% | –
CCC(=O)N1N=C(c2ccc(NS(=O)(=O)c3ccc(C)cc3)cc2)CC1c1ccco1 (stereo not given) | – | inconclusive: 16.4 µM [falling, partial curve, poor fit]
CCCn1c(=O)c2c(nc3n2CCN3Cc2ccco2)n(C)c1=O | inconclusive: 24.7% | –
CCN(CC)C(=O)CC(c1ccc2c(c1)OCO2)c1c(OC)cc(OC)c2ccc(=O)oc12 (stereo not given) | inconclusive: 0.696% | –
N#CC1(NC(=O)COc2ccc(S(=O)(=O)N3CCCC3)cc2[N+](=O)[O-])CCCCC1 | inactive: -1.63% | –
Cc1ccc(NC(=O)c2ccccc2)s1 | inconclusive: -19% | –
CCOC(=O)c1ccc(NC(=S)NC2CCCC2)cc1 | inconclusive: 3.13% | –
O=C(CSc1nc2nn(-c3ccccc3)c(=O)c-2c2n1CCCCC2)Nc1ccc(F)c(F)c1 | inactive: 2.43% | –
CC1(C)CC(=O)C=C(NCCc2ccccc2)C1 | inconclusive: -24% | –
COc1cc(OC)cc(C(=O)Nc2ccc([N+](=O)[O-])cn2)c1 | – | inconclusive: 3.26 µM [falling, full curve]
CCOC(=O)c1cc(-c2ccc(F)cc2)n(CC(=O)NC2CCCCCC2)c1C | inactive: 16.8% | –
O=C(Nc1cccc(C(=O)N2CCN(c3cccc(Cl)c3)CC2)c1)c1ccccc1 | – | inconclusive: 0.355 µM [falling, partial curve, poor fit]
Cc1nonc1OCCNCc1c(C(=O)N(C)C)nc2ccc(Cl)cn12 | inconclusive: -12.3% | –
S=C(NCc1ccccc1)NCc1cccc(Cl)c1 | inactive: -2.14% | –
N#Cc1c(N)nc2c(c1-c1ccc(F)cc1)c(=O)nc1sccn12 | inactive: 7.97% | –
O=C(O)Cn1c(=O)c2cccn2c2ccccc21 | inconclusive: 3.67% | –
